Measurements as given in publication PMC8424950.

The chains behind the UniProt entries cited, without tags or fusion partners.
UniProt Q9H3P7: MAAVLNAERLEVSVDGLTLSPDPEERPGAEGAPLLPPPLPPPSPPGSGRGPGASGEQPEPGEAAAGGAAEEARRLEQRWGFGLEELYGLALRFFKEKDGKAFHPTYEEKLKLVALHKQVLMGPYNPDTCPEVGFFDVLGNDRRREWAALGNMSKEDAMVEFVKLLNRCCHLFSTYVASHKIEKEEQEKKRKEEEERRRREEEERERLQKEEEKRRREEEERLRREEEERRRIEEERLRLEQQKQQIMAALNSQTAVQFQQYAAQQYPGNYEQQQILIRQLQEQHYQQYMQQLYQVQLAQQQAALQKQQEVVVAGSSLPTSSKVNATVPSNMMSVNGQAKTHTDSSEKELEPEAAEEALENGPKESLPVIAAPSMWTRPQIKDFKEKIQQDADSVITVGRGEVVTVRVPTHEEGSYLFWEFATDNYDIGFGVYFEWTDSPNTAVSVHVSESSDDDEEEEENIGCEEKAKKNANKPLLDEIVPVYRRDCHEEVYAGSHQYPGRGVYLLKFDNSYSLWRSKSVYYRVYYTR
UniProt Q8N6T3: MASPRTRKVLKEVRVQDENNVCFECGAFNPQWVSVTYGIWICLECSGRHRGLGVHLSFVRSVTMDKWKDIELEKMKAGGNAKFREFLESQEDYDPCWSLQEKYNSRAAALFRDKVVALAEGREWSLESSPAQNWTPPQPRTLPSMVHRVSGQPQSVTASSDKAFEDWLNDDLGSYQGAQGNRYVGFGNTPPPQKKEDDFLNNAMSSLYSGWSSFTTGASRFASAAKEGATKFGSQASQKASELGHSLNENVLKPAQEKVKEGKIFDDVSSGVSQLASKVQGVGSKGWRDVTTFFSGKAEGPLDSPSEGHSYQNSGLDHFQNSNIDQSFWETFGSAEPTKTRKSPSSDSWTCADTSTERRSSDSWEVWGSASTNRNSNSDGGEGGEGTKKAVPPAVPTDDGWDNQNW
UniProt Q9NP61: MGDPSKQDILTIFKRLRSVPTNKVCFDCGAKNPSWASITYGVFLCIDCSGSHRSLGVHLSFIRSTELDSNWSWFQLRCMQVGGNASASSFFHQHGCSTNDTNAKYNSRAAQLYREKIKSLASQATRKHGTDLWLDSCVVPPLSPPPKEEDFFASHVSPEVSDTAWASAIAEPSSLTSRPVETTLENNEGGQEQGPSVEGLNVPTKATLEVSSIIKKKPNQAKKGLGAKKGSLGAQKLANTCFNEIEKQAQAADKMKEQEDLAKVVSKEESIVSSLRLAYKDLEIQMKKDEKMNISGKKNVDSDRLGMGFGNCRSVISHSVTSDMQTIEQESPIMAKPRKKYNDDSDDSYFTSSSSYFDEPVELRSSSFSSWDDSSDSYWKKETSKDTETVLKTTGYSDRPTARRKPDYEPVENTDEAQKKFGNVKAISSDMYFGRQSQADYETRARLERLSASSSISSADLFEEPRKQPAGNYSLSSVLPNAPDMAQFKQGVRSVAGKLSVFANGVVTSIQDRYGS

Molecular target: T1, KDELR1-Myc-BirA* (human) (UniProt P24390)
T1 sequence: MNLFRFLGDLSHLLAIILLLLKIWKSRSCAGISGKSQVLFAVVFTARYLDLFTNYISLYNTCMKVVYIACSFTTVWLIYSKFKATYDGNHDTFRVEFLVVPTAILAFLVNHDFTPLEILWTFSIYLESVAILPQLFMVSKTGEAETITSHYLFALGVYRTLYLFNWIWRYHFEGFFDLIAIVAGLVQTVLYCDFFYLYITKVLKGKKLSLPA
Test: proximity labelling; BioID: KDELR1-Myc-BirA* transfected into HeLa for 24 h, 50 μM biotin for 6 h, lysis, Streptavidin Agarose, label-free mass spectrometry in triplicate against KDELR1-Myc control

Molecule: ACBD3 (endogenous) (from UniProt Q9H3P7 1-528)
- binding: binds

Molecule: ArfGAP1 (endogenous) (from UniProt Q8N6T3 1-406)
- binding: binds

Molecule: ArfGAP3 (endogenous) (from UniProt Q9NP61 1-516)
- binding: binds

B1: Golgin160 (endogenous) (protein, UniProt Q08378 1-1498)
chain: MDGASAEQDGLQEDRSHSGPSSLPEAPLKPPGPLVPPDQQDKVQCAEVNRASTEGESPDGPGQGGLCQNGPTPPFPDPPSSLDPTTSPVGPDASPGVAGFHDNLRKSQGTSAEGSVRKEALQSLRLSLPMQETQLCSTDSPLPLEKEEQVRLQARKWLEEQLKQYRVKRQQERSSQPATKTRLFSTLDPELMLNPENLPRASTLAMTKEYSFLRTSVPRGPKVGSLGLPAHPREKKTSKSSKIRSLADYRTEDSNAGNSGGNVPAPDSTKGSLKQNRSSAASVVSEISLSPDTDDRLENTSLAGDSVSEVDGNDSDSSSYSSASTRGTYGILSKTVGTQDTPYMVNGQEIPADTLGQFPSIKDVLQAAAAEHQDQGQEVNGEVRSRRDSICSSVSLESSAAETQEEMLQVLKEKMRLEGQLEALSLEASQALKEKAELQAQLAALSTKLQAQVECSHSSQQRQDSLSSEVDTLKQSCWDLERAMTDLQNMLEAKNASLASSNNDLQVAEEQYQRLMAKVEDMQRSMLSKDNTVHDLRQQMTALQSQLQQVQLERTTLTSKLKASQAEISSLQSVRQWYQQQLALAQEARVRLQGEMAHIQVGQMTQAGLLEHLKLENVSLSQQLTETQHRSMKEKGRIAAQLQGIEADMLDQEAAFMQIQEAKTMVEEDLQRRLEEFEGERERLQRMADSAASLEQQLEQVKLTLLQRDQQLEALQQEHLDLMKQLTLTQEALQSREQSLDALQTHYDELQARLGELQGEAASREDTICLLQNEKIILEAALQAAKSGKEELDRGARRLEEGTEETSETLEKLREELAIKSGQVEHLQQETAALKKQMQKIKEQFLQQKVMVEAYRRDATSKDQLISELKATRKRLDSELKELRQELMQVHGEKRTAEAELSRLHREVAQVRQHMADLEGHLQSAQKERDEMETHLQSLQFDKEQMVAVTEANEALKKQIEELQQEARKAITEQKQKMRRLGSDLTSAQKEMKTKHKAYENAVGILSRRLQEALAAKEAADAELGQLRAQGGSSDSSLALHERIQALEAELQAVSHSKTLLEKELQEVIALTSQELEESREKVLELEDELQESRGFRKKIKRLEESNKKLALELEHEKGKLTGLGQSNAALREHNSILETALAKREADLVQLNLQVQAVLQRKEEEDRQMKHLVQALQASLEKEKEKVNSLKEQVAAAKVEAGHNRRHFKAASLELSEVKKELQAKEHLVQKLQAEADDLQIREGKHSQEIAQFQAELAEARAQLQLLQKQLDEQLSKQPVGNQEMENLKWEVDQKEREIQSLKQQLDLTEQQGRKELEGLQQLLQNVKSELEMAQEDLSMTQKDKFMLQAKVSELKNNMKTLLQQNQQLKLDLRRGAAKTRKEPKGEASSSNPATPIKIPDCPVPASLLEELLRPPPAVSKEPLKNLNSCLQQLKQEMDSLQRQMEEHALTVHESLSSWTPLEPATASPVPPGGHAGPRGDPQRHSQSRASKEGPGE
- binding: binds

B2: Syntaxin 5 (endogenous) (protein, UniProt Q13190 1-355)
chain: MIPRKRYGSKNTDQGVYLGLSKTQVLSPATAGSSSSDIAPLPPPVTLVPPPPDTMSCRDRTQEFLSACKSLQTRQNGIQTNKPALRAVRQRSEFTLMAKRIGKDLSNTFAKLEKLTILAKRKSLFDDKAVEIEELTYIIKQDINSLNKQIAQLQDFVRAKGSQSGRHLQTHSNTIVVSLQSKLASMSNDFKSVLEVRTENLKQQRSRREQFSRAPVSALPLAPNHLGGGAVVLGAESHASKDVAIDMMDSRTSQQLQLIDEQDSYIQSRADTMQNIESTIVELGSIFQQLAHMVKEQEETIQRIDENVLGAQLDVEAAHSEILKYFQSVTSNRWLMVKIFLILIVFFIIFVVFLA
- binding: binds

No constants are given. Whether binding was seen depends on the method and setting. In cells and extracts the contact can be indirect. These calls come from enrichment with a bait or labelling near it, and not all partners need be listed. Where a sequence is shown, tags or fusion partners need not be part of it.
